PubChem BioAssay AID1224826 – NIAID, 2016
Aim: 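Genes that change LPS-induced Tnf promoter activity in mouse macrophages when knocked down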 (primary screen). Cell system: RAW264.7 G9 macrophages from mouse bearing reporters for p65 (GFP) and the Tnf promoter (mCherry). Reagents: siRNA pool against mouse genes, 100 nM. Duration: 16 h of LPS stimulation, after 2 days of siRNA transfection. Challenge: bacterial lipopolysaccharide (Salmonella minnesota R595), 10 ng/ml. Detection: 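Nuclear mCherry signal of the Tnf promoter reporter measured by imaging after background removal, scaled to each plate median and turned into robust z-scores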. Scale: Tnf reporter robust z-score: higher = stronger Tnf promoter reporter signal after LPS. Hit rule: 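a well counts as active at a score of -1.3 or below (Tlr4 knock-down control median) or above 3 (raised signal); controls and wells holding fewer than 50 cells are excluded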. Meaning of the calls: active = Tnf reporter clearly lowered or raised; inactive = no clear change in Tnf reporter.
This is an unselected part of about 17,000 reagents tested. About 1,110 of all reagents (6.6%) were called active. 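Active means lowered or raised reporter signal; replicate intensities are raw and not normalised per plate.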 The numbers tell different reagents against one gene apart. Not all columns of the deposit are shown. Reagent sequences are not shown.

Pak2: Tnf reporter robust z-score = -0.76; fewer than 50 cells in well = enough cells in well; activity call = inactive
Epha10: Tnf reporter robust z-score = 0.23; fewer than 50 cells in well = enough cells in well; activity call = inactive
Srsf2: Tnf reporter robust z-score = -0.7; fewer than 50 cells in well = enough cells in well; activity call = inactive
Polr1e: Tnf reporter robust z-score = 2.4; fewer than 50 cells in well = enough cells in well; activity call = inactive
Hfm1: Tnf reporter robust z-score = 0.3; fewer than 50 cells in well = enough cells in well; activity call = inactive
Ccr2: Tnf reporter robust z-score = -0.64; fewer than 50 cells in well = enough cells in well; activity call = inactive

Reformatted: results already given
target gene,pool no.,Tnf reporter robust z-score,fewer than 50 cells in well,activity call
Polr1e,1,2.4,enough cells in well,inactive
Hfm1,1,0.3,enough cells in well,inactive

The results go on.
Nt5dc3: Tnf reporter robust z-score = -0.04; fewer than 50 cells in well = enough cells in well; activity call = inactive
Adcyap1: Tnf reporter robust z-score = 0.91; fewer than 50 cells in well = enough cells in well; activity call = inactive
Fam50a: Tnf reporter robust z-score = -1.58; fewer than 50 cells in well = enough cells in well; activity call = active
Wasf3: Tnf reporter robust z-score = 0.44; fewer than 50 cells in well = enough cells in well; activity call = inactive
Or5an9: Tnf reporter robust z-score = 0.16; fewer than 50 cells in well = enough cells in well; activity call = inactive
Arhgef4 #1: Tnf reporter robust z-score = 2.14; fewer than 50 cells in well = enough cells in well; activity call = inactive
Arhgef4 #2: Tnf reporter robust z-score = -0.15; fewer than 50 cells in well = enough cells in well; activity call = inactive
